According to PubChem BioAssay AID2094 (Broad Institute, 2009):
Among all 300,000 compounds or so, about 1,200 (0.4%) were called active. The source calls these results inconclusive, neither active nor inactive. Cut-off read from the data, not from the text of the source: active = activity change below about -75% (passing the limit was not always enough); inconclusive = no clear call, values can overlap the other calls.

Experiment: modulation of AI-2 quorum-sensing luminescence – JMH597 strain, luminescence/OD600 ratio, primary screen (AID 2094);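 note: luminescence divided by OD600 gain over 9 h not by final OD600 alone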
Conditions: Vibrio harveyi JMH597 AI-2 luminescence/OD600 ratio, 9 h; at 7.5 µM; active compounds read low; 0 = neutral-control median; strain lacks LuxN and CqsS sensors

Structure (SMILES)	activity change
O=[N+]([O-])c1cc([N+](=O)[O-])c(NCC2CCS(=O)(=O)C2)c([N+](=O)[O-])c1 (stereo unspecified)	inconclusive: -56.9%
